Experimental data: article PMC6925144, “A prospective compound screening contest identified broader inhibitors for Sirtuin 1” (Scientific Reports, 2019)
In all, about 3,200 compounds were measured (“TSA(without NAD+) / Primary screening (TSA) / delta Tm (K)”: median about -0.07, highest 2% from about 0.37 on). The list shows a part of the results.

Protein sequences, listed by entry. Tags and fused reporters are not part of them. Residues count along the entry.
UniProt Q96EB6, 2-747 limits assumed: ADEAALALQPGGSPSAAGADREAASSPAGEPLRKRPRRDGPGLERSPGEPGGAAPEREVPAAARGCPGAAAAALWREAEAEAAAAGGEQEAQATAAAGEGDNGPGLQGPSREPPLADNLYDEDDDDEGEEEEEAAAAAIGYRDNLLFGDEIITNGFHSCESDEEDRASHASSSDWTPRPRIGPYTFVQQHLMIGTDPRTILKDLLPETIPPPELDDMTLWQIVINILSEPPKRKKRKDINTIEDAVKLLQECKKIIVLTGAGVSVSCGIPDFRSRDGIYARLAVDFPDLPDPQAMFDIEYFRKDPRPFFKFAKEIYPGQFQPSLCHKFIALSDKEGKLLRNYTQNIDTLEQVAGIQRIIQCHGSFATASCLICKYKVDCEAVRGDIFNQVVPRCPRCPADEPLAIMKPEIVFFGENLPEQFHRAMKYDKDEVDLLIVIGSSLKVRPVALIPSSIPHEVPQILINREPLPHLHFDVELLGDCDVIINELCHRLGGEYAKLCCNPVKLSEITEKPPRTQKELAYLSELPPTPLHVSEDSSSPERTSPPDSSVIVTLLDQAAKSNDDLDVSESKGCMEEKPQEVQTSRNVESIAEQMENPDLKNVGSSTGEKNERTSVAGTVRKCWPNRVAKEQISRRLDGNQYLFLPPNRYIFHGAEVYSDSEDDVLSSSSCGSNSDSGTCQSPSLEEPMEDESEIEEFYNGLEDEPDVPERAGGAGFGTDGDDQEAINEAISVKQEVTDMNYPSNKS

Molecular target: NAD-dependent deacetylase Sirtuin 1 (human, UniProt Q96EB6)
Experiment: primary screen, delta tm
Parameters: single well (n = 1)
Conditions: 10 µM
Method: A total of 3,192 compounds extracted from the proposed lists were first screened by thermal shift assay (TSA), which determined a melting temperature shift (ΔTm) of Sirtuin 1 upon the addition of a test compound at a concentration of 10 µM (n = 1) with primary hit criteria of ΔTm > 0.45 K or ΔTm < −1.5 K. Primary hits (48 compounds) were retested in the same assay at three concentrations (5, 10, 20 µM, n = 4) for hit confirmation and for dose-dependency check. Secondary hits (41 compounds) were checked their selectivity for Sirtuin 1 based on counterscreening on unrelated protein targets (bovine carbonic anhydrase (CA) and recombinant SH2 domain of hABL1 kinase (ABL1)) at three different concentrations (5, 10, 20 µM, n = 4), which yielded 38 hit compounds, hereafter referred to as TSA hits. The TSA screening above was conducted in the absence of NAD+.

| Structure (SMILES) | TSA(without NAD+) / Primary screening (TSA) / delta Tm (K) |
| --- | --- |
| CN(Cc1nc2ccccc2c(=O)[nH]1)C(=O)c1ccc(COc2ccccc2C#N)o1 | -0.05 K |
| Cn1ncc2c(N3CCN(C(=O)C4CC(=O)N(C5CCCC5)C4)CC3)ncnc21 (stereo not shown) | -0.18 K |
| Cc1ccc(C(=O)N2CC3(CCCC3)c3ccccc32)c(=O)[nH]1 | -0.17 K |
| Cc1cc(N2CCN(c3ncccc3C(N)=O)CC2)nc(C2CC2)n1 | -0.28 K |
| NC(=O)C1Cc2ccccc2CN1C(=O)Cc1ccc2c(c1)CCCC2 (stereo not shown) | -0.23 K |
| Cc1nc(N2CCC(C(N)=O)CC2)c2c(CC(C)C)csc2n1 | 0.03 K |
| Cc1ccc(O)c(C(=O)NC2CCCNC2=O)c1 (stereo not shown) | -0.24 K |
| Cc1[nH]c2ccc(Br)cc2c1CC(=O)N1CCC(C(N)=O)CC1 | -0.02 K |
| Cc1nn(-c2ccccc2)c2sc(C(=O)NCc3cccc(NC(=O)C4CC4)c3)cc12 | -0.02 K |
| CC(NCc1cccc2c1OCO2)c1ccc2c(c1)NC(=O)CO2 (stereo not shown) | -0.22 K |
| CCC(O)CCN (stereo not shown) | -0.12 K |
| O=C(CN1CCN(Cc2cscn2)CC1)NC(c1ccccc1)C1CC1 (stereo not shown) | -0.22 K |
| C=CCOc1cccc(/C=C2\Oc3cc(O)ccc3C2=O)c1 | -0.04 K |
| O=C(COC(=O)C12CC3CC(C1)CC(c1ccccc1)(C3)C2)N1CCc2ccccc21 | 0.08 K |
| Cc1ccc(NC(=O)CN2CCN(C(=O)c3ccc(-c4ccc(Cl)cc4)o3)CC2)cc1 | 0.08 K |
| NC(=O)C1CCN(C(=O)NCc2ccccc2CN2CCOCC2)C1 (stereo not shown) | -0.02 K |
| Cc1ccc(C(C)(C)C)cc1S(=O)(=O)Nc1cccc(C(=O)NNC(=O)c2cccc(S(=O)(=O)Nc3cccc(C(F)(F)F)c3)c2)c1 | 1.22 K |
| O=c1oc2ccc3ccccc3c2cc1-c1nc(-c2ccc(Br)cc2)cs1 | -0.08 K |
| O=C(Nc1cccc(-c2nc(C3CC3)no2)c1)c1cccc(NC(=O)C2CCCCC2)c1 | 0.42 K |
| Cc1cnc(C(=O)NC(Cc2ccccc2)C(=O)N2CCCC2)cn1 (stereo not shown) | -0.05 K |

A second format for 3 compounds above:
Structure (SMILES),TSA(without NAD+) / Primary screening (TSA) / delta Tm (K)
Cc1cc(N2CCN(c3ncccc3C(N)=O)CC2)nc(C2CC2)n1,-0.28 K
NC(=O)C1Cc2ccccc2CN1C(=O)Cc1ccc2c(c1)CCCC2 (stereo not shown),-0.23 K
Cc1nc(N2CCC(C(N)=O)CC2)c2c(CC(C)C)csc2n1,0.03 K

Further compounds:

| Structure (SMILES) | TSA(without NAD+) / Primary screening (TSA) / delta Tm (K) |
| --- | --- |
| Cc1nn(C)c(C)c1Nc1ncnc2ccsc12 | -0.11 K |
| CCCCCCCCNC(=O)/C(C#N)=C/c1c[nH]c2ccccc12 | 0.58 K |
| O=C(O)c1cncnc1/C=C/c1ccc2ccccc2c1 | -0.12 K |
| Cc1sc2nc(CSc3ccccc3)nc(N3CCCC(C(N)=O)C3)c2c1C (stereo not shown) | -0.12 K |
| CC(CCc1ccc(O)cc1)NC(=O)C(C)SCc1nc2scc(-c3ccccc3)c2c(=O)[nH]1 (stereo not shown) | -0.02 K |
| Cc1ccc(N(C)S(=O)(=O)c2cccc(C(=O)NNC(=O)C(C)Oc3ccc(C#N)cc3)c2)cc1 (stereo not shown) | -0.05 K |
| CCN(Cc1ccco1)C(=O)Cc1sc(S)nc1C | -0.08 K |
| CC1CCCN(CCN2CCN(c3ccc(F)cc3)CC2)C1 (stereo not shown) | 0.08 K |
| Cc1nn(-c2ccccc2)c(Cl)c1CN1CCN(c2ncnc3c2cnn3C)CC1 | -0.12 K |
| Fc1cc(CSc2nnc(NCC3CCCO3)s2)c2ncccc2c1 (stereo not shown) | -0.01 K |
| Cc1ccc(C(=O)NCC(=O)OC(C)C(=O)Nc2ccc(C(N)=O)cc2)cc1 (stereo not shown) | -0.07 K |
| Cc1cccc2c(=O)n(CC(=O)N(C)c3ccc4ccccc4c3)cnc12 | -0.11 K |
| O=C(Nc1ccc2nc(N3CCOCC3)sc2c1)C1=COCCO1 | -0.05 K |
| CNC(=O)c1ccc(Cl)cc1NC(=O)C1CC(=O)N(c2ccc3c(c2)OCO3)C1 (stereo not shown) | -0.11 K |
| Cn1cc(CSc2cccc(F)c2)cn1 | -0.33 K |
| O=C(CCc1ccc(Cl)cc1)N1CCN(c2ccnc3cc(Cl)ccc23)CC1 | 0.08 K |
| Cc1cc(C(=O)Nc2cc(C(N)=O)ccc2N2CCCCC2)c2ccccc2n1 | -0.02 K |
| CC(C)c1ccc(/C=C2/CS(=O)(=O)c3ccccc3C2=O)cc1[N+](=O)[O-] | -0.48 K |
| CCN(C(=O)c1cc(C)cc(Br)c1)c1ccncc1 | -0.23 K |
| O=c1[nH]c2ccccc2cc1CSc1nccn1Cc1ccccn1 | -0.17 K |

| Structure (SMILES) | TSA(without NAD+) / Primary screening (TSA) / delta Tm (K) |
| --- | --- |
| Cc1nn(CC(=O)N2CCC(N3CCCC3C(N)=O)CC2)cc1-c1ccccc1 (stereo not shown) | -0.22 K |
| C=C(Br)CN | -0.11 K |
| Cn1ccc(NC(=O)C(Cc2c[nH]c3ccccc23)NC(=O)c2cccs2)n1 (stereo not shown) | -0.13 K |
| CC(C)(C)c1noc(CCCC(=O)Nc2cc(C(N)=O)ccc2N2CCCC2)n1 | -0.08 K |
| C=CC(C)N (stereo not shown) | -0.08 K |
| O=C(Nc1ccc2c3c(cccc13)CC2)c1cnc2sccn2c1=O | -0.17 K |
| NC(=O)c1ccc(NC(=O)CNc2cc(Cl)ccc2N2CCOCC2)cc1 | -0.12 K |
| CC(C(=O)Nc1ccc(C(N)=O)cc1)N1CCN(c2ccc(O)cc2)CC1 (stereo not shown) | -0.02 K |
| CCOC(CNS(=O)(=O)c1ccc(C(N)=O)cc1)(OCC)c1ccccn1 | -0.15 K |
| O=C(Cc1ccc(OCc2cccc3cccnc23)cc1)NCCO | -0.15 K |
| O=c1oc2ccc3ccccc3c2cc1-c1csc(-c2nc(-c3ccc(Br)cc3)cs2)n1 | -0.12 K |
| Cc1cc2occ(CC(=O)N3CCN(S(=O)(=O)c4cc(C(N)=O)n(C)c4)CC3)c2cc1C(C)C | -0.13 K |
| NC(=O)c1cc(C2CCCN(c3nccc(-n4cccn4)n3)C2)n[nH]1 (stereo not shown) | -0.18 K |
| O=C(NCCCc1nc2ccccc2[nH]1)C(=O)Nc1cccnc1 | -0.03 K |
| Cc1cc(CC(=O)NC(CC(C)C)C(=O)Nc2cc[nH]n2)no1 (stereo not shown) | -0.08 K |
| COc1cc(NC(=O)C2CCCC2)c(C(=O)OCC(=O)N(Cc2ccccc2)C(C)(C)C)cc1OC | -0.23 K |
| O=C(CCc1nc2ccccc2o1)N1CCN(C(c2ccccc2)c2ccccc2)CC1 | 0.02 K |
| CC(C(=O)Nc1ccc(C(N)=O)cc1)N(C)Cc1ccccc1N1CCCCC1 (stereo not shown) | -0.08 K |
